Measured values reported in publication PMC3414764.
No constants are given. Whether binding was seen depends on the method and setting. Binding seen in cells or lysates may run through a third protein. Some results given as binding are weak or reduced against the parent protein; the word gives no strength.

By UniProt entry, the sequences of proteins in these tests, tags left out.
UniProt P28033: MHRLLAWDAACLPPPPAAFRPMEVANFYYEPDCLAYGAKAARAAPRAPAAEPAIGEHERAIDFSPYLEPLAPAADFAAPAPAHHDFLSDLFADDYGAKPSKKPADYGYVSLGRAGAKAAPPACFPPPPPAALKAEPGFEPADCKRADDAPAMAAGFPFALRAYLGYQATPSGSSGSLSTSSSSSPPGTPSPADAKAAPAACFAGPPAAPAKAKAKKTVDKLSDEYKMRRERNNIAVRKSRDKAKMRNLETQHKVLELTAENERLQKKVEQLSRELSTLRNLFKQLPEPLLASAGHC
UniProt O09106: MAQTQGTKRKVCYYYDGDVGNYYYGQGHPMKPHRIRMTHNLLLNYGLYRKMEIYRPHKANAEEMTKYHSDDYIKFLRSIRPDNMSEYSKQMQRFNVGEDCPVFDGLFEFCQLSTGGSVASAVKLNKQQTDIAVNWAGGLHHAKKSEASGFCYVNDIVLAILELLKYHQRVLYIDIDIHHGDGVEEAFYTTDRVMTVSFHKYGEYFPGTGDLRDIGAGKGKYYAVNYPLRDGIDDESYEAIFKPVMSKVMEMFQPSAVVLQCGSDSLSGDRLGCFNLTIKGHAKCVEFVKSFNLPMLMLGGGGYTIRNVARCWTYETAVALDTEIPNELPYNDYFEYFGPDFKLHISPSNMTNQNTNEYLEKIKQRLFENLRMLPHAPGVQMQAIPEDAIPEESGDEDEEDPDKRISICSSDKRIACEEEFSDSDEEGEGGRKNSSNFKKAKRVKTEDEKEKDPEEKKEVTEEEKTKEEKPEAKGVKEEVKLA

Molecular target: CCAAT/enhancer binding protein β (mouse (endogenous in primary mixed glial cultures)) (UniProt P28033)
Assay: co-IP; anti-C/EBPβ (polyclonal rabbit) on Dynabeads protein A; 200 μg protein from chromatin extracts of control and LPS-treated (six hours) primary mixed glial cultures, overnight at 4°C; washed with PBS; blot with anti-HDAC1 and anti-C/EBPβ; rabbit IgG and unlabeled beads as negative controls

## histone deacetylase 1 (from UniProt O09106 1-482) (enzyme)
  binding: binds
